From PubChem BioAssay AID603 (National Center for Advancing Translational Sciences (NCATS), 2007)
About 180 (0.25%) of roughly 71,000 compounds were called active. Calls come from the whole dose curve; as a rule, active = well fitted curve in the direction sought with a large enough effect; inconclusive = small, poorly fitted or top-dose-only effect; inactive = flat fitted curve, though single readings scatter. The list shows a part of the results, in another mix than the full data. The source gives no active or inactive call for entries shown without one.

tested on: DNA polymerase III holoenzyme (E. coli); experiment: qHTS Assay for Inhibitors of DNA Polymerase III Holoenzyme System; conditions: reconstituted DNA polymerase III holoenzyme replication, biochemical; activity change, negative = inhibition: at 11.4 µM (top of the series)
Experimental: NIH Molecular Libraries Screening Centers Network [MLSCN]
NIH Chemical Genomics Center [NCGC]
Assay Provider: Charles McHenry, University of Colorado
E. coli DNA polymerase III holoenzyme complex was assayed for DNA production by fluorescent detection of the double-stranded DNA product with PicoGreen dye. The holoenzyme complex was reconstituted from the following purified protein components: DNA Polymerase III, beta subunit processivity factor, SSB single-stranded DNA binding protein, and Primase. Single-stranded, circular M13Gori was used as a substrate with dNTPs and NTPs also supplied to the substrate reagent. Compounds from the NCGC collection were incubated with the holoenzyme mixture for 15 min at room temperature to allow binding to occur, and then the reaction was started by the addition of substrate. […] Reaction progress was measured in a ViewLux CCD imager in fluorescence intensity mode by using 480 nm excitation and 540 nm emission filter set. […]
Three uL of holoenzyme mixture were dispensed to 1536-well Greiner black solid bottom plates. […] After room temperature incubation for 35 minutes, 1 uL of PicoGreen solution was added to each well and the plates were read 480 nm excitation and 540 nm emission using ViewLux (Perkin-Elmer) High-throughput CCD imager and fluorescence protocol settings. […]
% is set by controls: 0 for no effect and ±100 for the full control effect; potency is the fitted concentration of half-maximal effect.

Compound	activity change, negative = inhibition [%]	Potency
C[N@@+]1(CC[N@@+]2(C)CCC[C@H]2c2cccnc2)CCC[C@@H]1c1cccnc1	-73.7	
O=C(Nc1ccc(Cl)cc1C(=O)O)c1ccc2c(c1)C(=O)N(Cc1ccco1)C2=O		active: 31.6 µM
